Assay results: PMC10404622
For at least one entry, the source does not settle the construct or the ends of the probe. At least one result comes from cells or an extract, where the contact may be indirect. A negative result means that nothing was seen under these conditions.

Protein sequences, listed by entry. Tags and fused reporters are not part of them. Lines headed by an entry give the natural chain unless they say otherwise; changes in a name come on top.
UniProt P08621, whole entry: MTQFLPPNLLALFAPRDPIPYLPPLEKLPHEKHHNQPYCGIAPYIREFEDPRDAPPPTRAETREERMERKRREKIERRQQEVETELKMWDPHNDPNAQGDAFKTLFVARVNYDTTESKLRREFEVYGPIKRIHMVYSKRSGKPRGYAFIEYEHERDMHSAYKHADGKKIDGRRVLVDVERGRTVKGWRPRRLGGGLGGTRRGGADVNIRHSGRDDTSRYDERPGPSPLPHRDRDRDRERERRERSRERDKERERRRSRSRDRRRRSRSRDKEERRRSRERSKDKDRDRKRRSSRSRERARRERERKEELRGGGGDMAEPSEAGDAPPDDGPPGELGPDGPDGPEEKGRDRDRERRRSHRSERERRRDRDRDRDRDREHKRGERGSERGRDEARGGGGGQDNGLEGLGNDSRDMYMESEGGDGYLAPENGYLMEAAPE
UniProt P09234, whole entry: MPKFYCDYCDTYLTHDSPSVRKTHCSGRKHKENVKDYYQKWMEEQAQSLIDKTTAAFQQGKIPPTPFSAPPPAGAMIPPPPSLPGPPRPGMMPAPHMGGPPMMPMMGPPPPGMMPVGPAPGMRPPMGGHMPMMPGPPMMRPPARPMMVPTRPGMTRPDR

Columns and labels:
[1] = target: U1-70K (HeLa NE) (human (HeLa)) (UniProt P08621); test: pull-down; conditions: protein in an extract, label: 3'-biotin, single-stranded DNA
[2] = target: U1C (HeLa NE) (human (HeLa)) (UniProt P09234); test: pull-down; conditions: protein in an extract, label: 3'-biotin, single-stranded DNA

Sequence | binding result ([1]; indirect via U1 snRNA) | binding result ([2]; indirect via U1 snRNA) | binding result ([1]; U1 snRNA still captured) | binding result ([2]; U1 snRNA still captured)
CAGGTAAGTAT [oligo 2 (11 nt)] | binds | binds | – | –
GGTATCTCCCCTGCCAGGTAAGTAT [oligo 3 (25 nt)] | – | – | no binding | no binding
